Binding data for two molecules are collected here from patent publication US20100272709A1 (GENERAL HOSPITAL, published 2010).

Results are given in words; binding and its absence hold for the method and conditions named. Some binding calls cover weakened binding; strength is not graded here. Sequences can lack the tags named with a protein.

The target of this test is T1, EYFP-dynamin wild type fusion (UniProt Q05193 1-864).
T1 construct: also called YFP-WT; EYFP-dynWT; not shown: EYFP tag
T1 sequence (looked up): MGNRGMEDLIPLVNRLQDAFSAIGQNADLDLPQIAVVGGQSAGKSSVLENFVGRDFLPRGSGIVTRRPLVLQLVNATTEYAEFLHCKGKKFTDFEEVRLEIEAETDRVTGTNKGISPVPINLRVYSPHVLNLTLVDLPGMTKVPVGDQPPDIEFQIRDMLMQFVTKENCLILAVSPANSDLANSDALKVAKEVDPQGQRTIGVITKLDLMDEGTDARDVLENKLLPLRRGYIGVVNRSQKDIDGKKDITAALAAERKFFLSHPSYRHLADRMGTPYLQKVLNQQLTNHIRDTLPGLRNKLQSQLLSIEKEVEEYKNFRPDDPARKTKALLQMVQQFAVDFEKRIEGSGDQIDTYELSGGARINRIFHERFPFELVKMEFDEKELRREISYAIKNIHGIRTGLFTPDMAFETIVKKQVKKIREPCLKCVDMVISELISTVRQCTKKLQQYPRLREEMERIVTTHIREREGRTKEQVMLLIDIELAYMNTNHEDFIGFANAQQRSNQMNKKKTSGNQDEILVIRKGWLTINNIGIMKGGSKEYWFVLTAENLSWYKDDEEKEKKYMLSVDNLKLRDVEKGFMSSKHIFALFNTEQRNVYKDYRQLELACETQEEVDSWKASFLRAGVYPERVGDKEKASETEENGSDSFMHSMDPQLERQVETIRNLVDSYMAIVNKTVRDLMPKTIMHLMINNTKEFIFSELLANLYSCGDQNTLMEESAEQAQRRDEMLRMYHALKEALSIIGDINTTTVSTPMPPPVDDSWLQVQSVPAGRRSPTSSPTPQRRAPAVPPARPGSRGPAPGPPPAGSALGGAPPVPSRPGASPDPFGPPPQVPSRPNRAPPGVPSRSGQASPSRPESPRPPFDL
Put plainly: FLIM/FRET in live COS cells.

B1: ECFP-dynamin wild type fusion (protein, UniProt Q05193 1-864, looked up, not shown: large carriers)
chain: MGNRGMEDLIPLVNRLQDAFSAIGQNADLDLPQIAVVGGQSAGKSSVLENFVGRDFLPRGSGIVTRRPLVLQLVNATTEYAEFLHCKGKKFTDFEEVRLEIEAETDRVTGTNKGISPVPINLRVYSPHVLNLTLVDLPGMTKVPVGDQPPDIEFQIRDMLMQFVTKENCLILAVSPANSDLANSDALKVAKEVDPQGQRTIGVITKLDLMDEGTDARDVLENKLLPLRRGYIGVVNRSQKDIDGKKDITAALAAERKFFLSHPSYRHLADRMGTPYLQKVLNQQLTNHIRDTLPGLRNKLQSQLLSIEKEVEEYKNFRPDDPARKTKALLQMVQQFAVDFEKRIEGSGDQIDTYELSGGARINRIFHERFPFELVKMEFDEKELRREISYAIKNIHGIRTGLFTPDMAFETIVKKQVKKIREPCLKCVDMVISELISTVRQCTKKLQQYPRLREEMERIVTTHIREREGRTKEQVMLLIDIELAYMNTNHEDFIGFANAQQRSNQMNKKKTSGNQDEILVIRKGWLTINNIGIMKGGSKEYWFVLTAENLSWYKDDEEKEKKYMLSVDNLKLRDVEKGFMSSKHIFALFNTEQRNVYKDYRQLELACETQEEVDSWKASFLRAGVYPERVGDKEKASETEENGSDSFMHSMDPQLERQVETIRNLVDSYMAIVNKTVRDLMPKTIMHLMINNTKEFIFSELLANLYSCGDQNTLMEESAEQAQRRDEMLRMYHALKEALSIIGDINTTTVSTPMPPPVDDSWLQVQSVPAGRRSPTSSPTPQRRAPAVPPARPGSRGPAPGPPPAGSALGGAPPVPSRPGASPDPFGPPPQVPSRPNRAPPGVPSRSGQASPSRPESPRPPFDL
Take B1: the binding entry is recorded as “binds”.

B2: ECFP-dynI690K fusion (other, UniProt Q05193 1-864, looked up)
chain: MGNRGMEDLIPLVNRLQDAFSAIGQNADLDLPQIAVVGGQSAGKSSVLENFVGRDFLPRGSGIVTRRPLVLQLVNATTEYAEFLHCKGKKFTDFEEVRLEIEAETDRVTGTNKGISPVPINLRVYSPHVLNLTLVDLPGMTKVPVGDQPPDIEFQIRDMLMQFVTKENCLILAVSPANSDLANSDALKVAKEVDPQGQRTIGVITKLDLMDEGTDARDVLENKLLPLRRGYIGVVNRSQKDIDGKKDITAALAAERKFFLSHPSYRHLADRMGTPYLQKVLNQQLTNHIRDTLPGLRNKLQSQLLSIEKEVEEYKNFRPDDPARKTKALLQMVQQFAVDFEKRIEGSGDQIDTYELSGGARINRIFHERFPFELVKMEFDEKELRREISYAIKNIHGIRTGLFTPDMAFETIVKKQVKKIREPCLKCVDMVISELISTVRQCTKKLQQYPRLREEMERIVTTHIREREGRTKEQVMLLIDIELAYMNTNHEDFIGFANAQQRSNQMNKKKTSGNQDEILVIRKGWLTINNIGIMKGGSKEYWFVLTAENLSWYKDDEEKEKKYMLSVDNLKLRDVEKGFMSSKHIFALFNTEQRNVYKDYRQLELACETQEEVDSWKASFLRAGVYPERVGDKEKASETEENGSDSFMHSMDPQLERQVETIRNLVDSYMAIVNKTVRDLMPKTIMHLMKNNTKEFIFSELLANLYSCGDQNTLMEESAEQAQRRDEMLRMYHALKEALSIIGDINTTTVSTPMPPPVDDSWLQVQSVPAGRRSPTSSPTPQRRAPAVPPARPGSRGPAPGPPPAGSALGGAPPVPSRPGASPDPFGPPPQVPSRPNRAPPGVPSRSGQASPSRPESPRPPFDL
notes: it is read as I690K; also called CFP-1690K; not shown: ECFP tag
Take B2: the binding result was “binds”.
